Binding data for two molecules are collected here from PMC10993396.

Protein sequences, listed by entry. Tags and fused reporters are not part of them.
UniProt Q9FIJ0: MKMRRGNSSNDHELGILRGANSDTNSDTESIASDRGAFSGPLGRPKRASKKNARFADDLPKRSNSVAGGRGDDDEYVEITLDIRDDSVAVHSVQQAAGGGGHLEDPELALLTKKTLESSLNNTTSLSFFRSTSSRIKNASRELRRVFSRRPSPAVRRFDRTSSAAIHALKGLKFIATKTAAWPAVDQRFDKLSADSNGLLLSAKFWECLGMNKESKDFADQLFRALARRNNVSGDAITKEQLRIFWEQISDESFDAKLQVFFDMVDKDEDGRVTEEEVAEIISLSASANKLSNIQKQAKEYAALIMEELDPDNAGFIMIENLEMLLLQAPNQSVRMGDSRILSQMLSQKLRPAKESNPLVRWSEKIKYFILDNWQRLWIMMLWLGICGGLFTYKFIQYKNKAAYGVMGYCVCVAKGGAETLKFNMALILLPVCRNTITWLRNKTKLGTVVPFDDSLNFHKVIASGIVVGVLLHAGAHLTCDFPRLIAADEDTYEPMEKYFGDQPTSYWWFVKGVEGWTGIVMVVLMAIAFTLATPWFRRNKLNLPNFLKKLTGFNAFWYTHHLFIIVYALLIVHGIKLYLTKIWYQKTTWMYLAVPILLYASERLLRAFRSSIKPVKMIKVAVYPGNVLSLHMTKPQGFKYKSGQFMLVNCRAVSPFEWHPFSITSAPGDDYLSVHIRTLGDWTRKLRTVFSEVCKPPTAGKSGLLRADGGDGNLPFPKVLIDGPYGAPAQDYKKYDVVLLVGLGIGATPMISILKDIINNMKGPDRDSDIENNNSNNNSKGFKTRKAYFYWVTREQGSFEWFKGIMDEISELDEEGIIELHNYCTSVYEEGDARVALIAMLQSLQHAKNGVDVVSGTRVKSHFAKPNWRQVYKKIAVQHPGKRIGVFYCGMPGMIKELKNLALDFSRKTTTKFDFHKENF

Common to all, as to experiment: co-IP; total protein extracts of 12-day-old Arabidopsis seedlings co-expressing both tagged proteins, treated 10 min with 500 nM flg22 or H2O; extraction buffer 50 mM Tris-HCl pH 7.5, 200 mM NaCl, 0.1% Tween-20; anti-MYC, anti-FLAG or anti-HA microbeads (µMACS) for 2 hours; detection by western …
The target of test [1] is T1, Arabidopsis thaliana Mitogen-activated protein Kinase Phosphatase 1 (MKP1), MYC-tagged (Arabidopsis thaliana) (UniProt Q9C5S1).
T1 sequence: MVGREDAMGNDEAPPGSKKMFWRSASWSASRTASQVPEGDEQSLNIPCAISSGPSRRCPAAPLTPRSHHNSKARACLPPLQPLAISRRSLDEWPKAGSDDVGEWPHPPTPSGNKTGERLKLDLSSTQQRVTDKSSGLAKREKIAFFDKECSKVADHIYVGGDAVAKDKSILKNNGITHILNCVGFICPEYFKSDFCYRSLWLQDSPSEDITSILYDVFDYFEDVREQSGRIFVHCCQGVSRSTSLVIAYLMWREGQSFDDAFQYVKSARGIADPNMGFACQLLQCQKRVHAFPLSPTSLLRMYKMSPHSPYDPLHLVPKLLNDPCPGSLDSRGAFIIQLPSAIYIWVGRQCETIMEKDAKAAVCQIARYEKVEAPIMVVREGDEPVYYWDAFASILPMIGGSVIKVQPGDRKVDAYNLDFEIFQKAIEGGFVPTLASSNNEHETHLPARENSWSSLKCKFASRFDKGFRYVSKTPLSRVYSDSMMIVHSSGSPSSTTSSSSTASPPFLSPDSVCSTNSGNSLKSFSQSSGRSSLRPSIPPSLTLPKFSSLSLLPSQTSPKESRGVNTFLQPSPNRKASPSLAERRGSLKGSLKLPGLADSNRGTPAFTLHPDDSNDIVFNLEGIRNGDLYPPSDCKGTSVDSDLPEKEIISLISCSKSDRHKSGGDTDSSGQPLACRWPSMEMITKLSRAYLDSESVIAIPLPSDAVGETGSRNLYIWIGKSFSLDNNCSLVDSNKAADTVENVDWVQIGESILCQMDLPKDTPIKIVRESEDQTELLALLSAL

The target of test [2] is T2, BOTRYTIS INDUCED KINASE 1 (BIK1), HA-tagged (Arabidopsis thaliana) (UniProt O48814).
T2 sequence: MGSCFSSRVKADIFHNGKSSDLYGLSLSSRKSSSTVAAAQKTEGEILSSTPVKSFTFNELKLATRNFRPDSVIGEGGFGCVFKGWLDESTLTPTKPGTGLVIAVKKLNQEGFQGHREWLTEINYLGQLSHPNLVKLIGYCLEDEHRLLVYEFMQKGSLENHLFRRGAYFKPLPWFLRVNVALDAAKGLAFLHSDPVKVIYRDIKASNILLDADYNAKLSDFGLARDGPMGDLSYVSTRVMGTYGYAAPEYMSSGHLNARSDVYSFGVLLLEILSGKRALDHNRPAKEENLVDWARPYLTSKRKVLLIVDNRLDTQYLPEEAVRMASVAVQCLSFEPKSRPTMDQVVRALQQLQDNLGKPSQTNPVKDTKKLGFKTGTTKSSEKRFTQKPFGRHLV

The target in test [3] is NADPH oxidase RBOHD (RESPIRATORY BURST OXIDASE HOMOLOG D), FLAG-tagged (Arabidopsis thaliana) (UniProt Q9FIJ0).

These are yes or no findings as the source states them, for the method shown. In cells and extracts the contact can be indirect. Tags and fused reporters may be left off the sequences shown.

On to “NADPH oxidase RBOHD (RESPIRATORY BURST OXIDASE HOMOLOG D), FLAG-tagged (from UniProt Q9FIJ0 1-921) (enzyme)”, for which the binding entry in test [1] is on record as “no binding”.

B1: Arabidopsis thaliana Mitogen-activated protein Kinase Phosphatase 1 (MKP1), MYC-tagged (enzyme, UniProt Q9C5S1 1-784)
chain: MVGREDAMGNDEAPPGSKKMFWRSASWSASRTASQVPEGDEQSLNIPCAISSGPSRRCPAAPLTPRSHHNSKARACLPPLQPLAISRRSLDEWPKAGSDDVGEWPHPPTPSGNKTGERLKLDLSSTQQRVTDKSSGLAKREKIAFFDKECSKVADHIYVGGDAVAKDKSILKNNGITHILNCVGFICPEYFKSDFCYRSLWLQDSPSEDITSILYDVFDYFEDVREQSGRIFVHCCQGVSRSTSLVIAYLMWREGQSFDDAFQYVKSARGIADPNMGFACQLLQCQKRVHAFPLSPTSLLRMYKMSPHSPYDPLHLVPKLLNDPCPGSLDSRGAFIIQLPSAIYIWVGRQCETIMEKDAKAAVCQIARYEKVEAPIMVVREGDEPVYYWDAFASILPMIGGSVIKVQPGDRKVDAYNLDFEIFQKAIEGGFVPTLASSNNEHETHLPARENSWSSLKCKFASRFDKGFRYVSKTPLSRVYSDSMMIVHSSGSPSSTTSSSSTASPPFLSPDSVCSTNSGNSLKSFSQSSGRSSLRPSIPPSLTLPKFSSLSLLPSQTSPKESRGVNTFLQPSPNRKASPSLAERRGSLKGSLKLPGLADSNRGTPAFTLHPDDSNDIVFNLEGIRNGDLYPPSDCKGTSVDSDLPEKEIISLISCSKSDRHKSGGDTDSSGQPLACRWPSMEMITKLSRAYLDSESVIAIPLPSDAVGETGSRNLYIWIGKSFSLDNNCSLVDSNKAADTVENVDWVQIGESILCQMDLPKDTPIKIVRESEDQTELLALLSAL
Regarding B1, the binding result in test [2] and in test [3] was “no binding” throughout.
